For two molecules, binding results are on record in article PMC9458440, “Cryo-EM structure of the Smc5/6 holo-complex” (Nucleic Acids Research, 2022).

No constants are given. Whether binding was seen depends on the method and setting.

The target of this test is T1, Smc6 (Walker B mutant E1048Q), subunit of the S. cerevisiae Smc5/6 holo-complex (S. cerevisiae), Q12749.
T1 chain: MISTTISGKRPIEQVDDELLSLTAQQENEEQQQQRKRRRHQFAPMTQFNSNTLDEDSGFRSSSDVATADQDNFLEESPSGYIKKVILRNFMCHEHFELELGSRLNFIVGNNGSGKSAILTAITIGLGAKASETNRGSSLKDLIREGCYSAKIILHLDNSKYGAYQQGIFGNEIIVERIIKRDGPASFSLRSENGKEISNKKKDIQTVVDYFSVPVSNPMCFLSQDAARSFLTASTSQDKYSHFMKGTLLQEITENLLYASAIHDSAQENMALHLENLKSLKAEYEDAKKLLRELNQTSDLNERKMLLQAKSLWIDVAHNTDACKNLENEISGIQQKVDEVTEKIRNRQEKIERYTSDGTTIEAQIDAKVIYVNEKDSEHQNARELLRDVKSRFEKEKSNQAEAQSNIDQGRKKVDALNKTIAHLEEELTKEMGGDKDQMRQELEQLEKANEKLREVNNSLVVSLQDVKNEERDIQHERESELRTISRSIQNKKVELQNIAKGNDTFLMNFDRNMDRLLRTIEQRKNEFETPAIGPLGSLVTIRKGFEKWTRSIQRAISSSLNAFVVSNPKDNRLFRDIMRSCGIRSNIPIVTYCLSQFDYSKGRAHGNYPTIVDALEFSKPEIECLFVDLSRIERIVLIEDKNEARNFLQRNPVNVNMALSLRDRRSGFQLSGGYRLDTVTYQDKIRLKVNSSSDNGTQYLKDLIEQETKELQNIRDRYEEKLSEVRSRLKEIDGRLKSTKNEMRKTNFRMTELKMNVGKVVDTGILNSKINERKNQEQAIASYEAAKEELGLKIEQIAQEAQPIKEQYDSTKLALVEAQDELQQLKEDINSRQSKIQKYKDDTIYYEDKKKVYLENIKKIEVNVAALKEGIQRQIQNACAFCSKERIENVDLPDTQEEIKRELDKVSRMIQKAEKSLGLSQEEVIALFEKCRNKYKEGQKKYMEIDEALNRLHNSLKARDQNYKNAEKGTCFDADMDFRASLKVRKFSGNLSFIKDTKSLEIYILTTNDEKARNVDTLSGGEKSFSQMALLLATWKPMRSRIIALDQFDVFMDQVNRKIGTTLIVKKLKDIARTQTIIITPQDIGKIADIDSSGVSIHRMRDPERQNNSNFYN
Nature of the test: cryo-EM structure; BS3-crosslinked six-subunit holo-complex, apo / non-liganded; fractions from Superose 6 diluted to 20 mM HEPES.NaOH pH 7.5, 50 mM NaCl, 0.5 mM TCEP, 0.1 mg/ml; maps at 10.8 Å (holo-complex), 8.53 Å (hinge/arm) and 6.5 Å (head-only); pseudo-atomic model built from homology and AlphaFold models; both purified. The conditions noted are these: remark: other sources report otherwise.

B1: Nse3, subunit of the S. cerevisiae Smc5/6 holo-complex (natural protein)
chain: MSSIDNDSDVDLTEDLAVAKIVKENPVARKMVRYILSRGESQNSIITRNKLQSVIHEAAREENIAKPSFSKMFMDINAILYNVYGFELQGLPSKNNMNAGGNGSNSNTNKSMPEPLGHRAQKFILLNNVPHSKNFDDFKILQSAHTYEELIVTGEYIGDDIASGTSNTLESKLSTDRDLVYKGVLSVILCIVFFSKNNILHQELIKFLETFGIPSDGSKIAILNITIEDLIKSLEKREYIVRLEEKSDTDGEVISYRIGRRTQAELGLESLEKLVQEIMGLEKEQTKSLHDDIIKSIGDSYSI
notes: Nse3, Saccharomyces cerevisiae; the model holds amino acids 9-99, 114-152, 173-303; also called KITE subunit; source: recombinant, expressed in insect cells, purified as holo-complex (Superose 6 SEC), BS3-crosslinked
Regarding B1, the binding entry was “no binding”.

B2: Nse1, subunit of the S. cerevisiae Smc5/6 holo-complex (natural protein)
chain: MEVHEEQVSAPVTGDATAKYLLQYILSARGICHENALILALMRLETDASTLNTEWSIQQWVDKLNDYINAINVKLNLLGYKIIRINHGIGRNAVTLKAKQNFESFEDNTAIRAHNNDYAVLQSIVLPESNRFFVYVNLASTEETKLATRFNQNEIEFMKWAIEQFMISGETIVEGPALETSIIVKEVNRILVAATGDSNLAKWRKFSTFTVGSTNLFQFQELTATDIEDLLLRLCELKWFYRTQEGKFGIDLRCIAELEEYLTSMYNLNTCQNCHKLAIQGVRCGNESCREENEETGENSLSQIWHVDCFKHYITHVSKNCDRCGSSLITEGVYVI
notes: Nse1, Saccharomyces cerevisiae; the model holds amino acids 11-336; also called KITE subunit; source: recombinant, expressed in insect cells, purified as holo-complex (Superose 6 SEC), BS3-crosslinked
For B2, the binding result is “no binding”.
